Reference: the supplement of paper PMC10849652
Some of the results follow.

The chains behind the UniProt entries cited, without tags or fusion partners. Where a name states a change or a piece, a line headed by the entry shows the natural chain unless it says otherwise.
UniProt O43181, whole entry, looked up: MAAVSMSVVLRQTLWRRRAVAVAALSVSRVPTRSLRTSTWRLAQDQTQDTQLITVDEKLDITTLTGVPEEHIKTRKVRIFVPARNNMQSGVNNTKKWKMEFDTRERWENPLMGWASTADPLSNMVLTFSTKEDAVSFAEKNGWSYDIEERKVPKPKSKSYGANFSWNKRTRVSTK
UniProt O95168, whole entry, looked up: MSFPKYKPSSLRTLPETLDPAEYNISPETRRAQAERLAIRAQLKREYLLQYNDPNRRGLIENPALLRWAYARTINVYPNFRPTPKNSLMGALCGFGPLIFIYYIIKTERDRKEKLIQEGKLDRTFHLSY
UniProt O60934: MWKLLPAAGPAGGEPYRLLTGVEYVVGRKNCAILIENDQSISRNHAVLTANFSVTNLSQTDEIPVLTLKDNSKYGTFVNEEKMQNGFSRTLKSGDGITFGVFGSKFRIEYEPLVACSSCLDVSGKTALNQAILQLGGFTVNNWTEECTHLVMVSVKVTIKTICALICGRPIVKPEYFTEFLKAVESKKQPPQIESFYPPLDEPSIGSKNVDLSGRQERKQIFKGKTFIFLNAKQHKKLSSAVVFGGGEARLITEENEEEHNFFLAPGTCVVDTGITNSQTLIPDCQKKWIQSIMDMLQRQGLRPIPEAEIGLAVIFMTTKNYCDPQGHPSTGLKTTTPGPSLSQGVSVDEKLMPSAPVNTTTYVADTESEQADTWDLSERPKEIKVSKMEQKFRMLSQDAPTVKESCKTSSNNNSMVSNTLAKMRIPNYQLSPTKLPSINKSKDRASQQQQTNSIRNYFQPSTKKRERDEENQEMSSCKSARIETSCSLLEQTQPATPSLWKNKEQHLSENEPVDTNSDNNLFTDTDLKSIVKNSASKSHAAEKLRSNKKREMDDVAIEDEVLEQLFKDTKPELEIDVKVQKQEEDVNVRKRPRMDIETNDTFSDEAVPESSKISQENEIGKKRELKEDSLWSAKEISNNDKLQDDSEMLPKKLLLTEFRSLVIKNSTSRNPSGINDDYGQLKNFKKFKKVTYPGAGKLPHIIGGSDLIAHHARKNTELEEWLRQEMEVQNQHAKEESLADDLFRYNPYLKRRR
UniProt Q92692, whole entry, looked up: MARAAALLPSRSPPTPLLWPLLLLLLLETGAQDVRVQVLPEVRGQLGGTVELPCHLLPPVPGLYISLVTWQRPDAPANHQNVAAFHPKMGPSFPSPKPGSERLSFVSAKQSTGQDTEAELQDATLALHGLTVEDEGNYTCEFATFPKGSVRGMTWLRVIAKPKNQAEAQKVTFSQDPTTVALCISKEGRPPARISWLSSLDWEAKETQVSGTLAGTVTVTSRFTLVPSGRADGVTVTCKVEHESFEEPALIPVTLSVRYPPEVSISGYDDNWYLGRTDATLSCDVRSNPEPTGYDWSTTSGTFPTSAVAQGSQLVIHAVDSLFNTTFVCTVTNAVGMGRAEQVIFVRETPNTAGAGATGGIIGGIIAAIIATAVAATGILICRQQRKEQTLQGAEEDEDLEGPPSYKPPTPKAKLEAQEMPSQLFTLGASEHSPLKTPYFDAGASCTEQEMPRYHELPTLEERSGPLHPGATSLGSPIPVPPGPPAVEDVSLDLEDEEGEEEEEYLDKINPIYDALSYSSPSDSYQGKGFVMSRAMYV
UniProt O75380, whole entry, looked up: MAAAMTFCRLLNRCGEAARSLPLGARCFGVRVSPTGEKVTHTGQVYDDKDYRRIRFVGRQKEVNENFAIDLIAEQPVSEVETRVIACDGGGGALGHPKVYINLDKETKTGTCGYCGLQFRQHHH
UniProt Q8N183: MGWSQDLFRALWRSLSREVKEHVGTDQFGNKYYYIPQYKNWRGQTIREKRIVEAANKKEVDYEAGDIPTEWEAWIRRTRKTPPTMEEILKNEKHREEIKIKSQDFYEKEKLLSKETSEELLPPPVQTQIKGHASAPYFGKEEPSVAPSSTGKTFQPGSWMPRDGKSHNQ
UniProt Q15003, whole entry, looked up: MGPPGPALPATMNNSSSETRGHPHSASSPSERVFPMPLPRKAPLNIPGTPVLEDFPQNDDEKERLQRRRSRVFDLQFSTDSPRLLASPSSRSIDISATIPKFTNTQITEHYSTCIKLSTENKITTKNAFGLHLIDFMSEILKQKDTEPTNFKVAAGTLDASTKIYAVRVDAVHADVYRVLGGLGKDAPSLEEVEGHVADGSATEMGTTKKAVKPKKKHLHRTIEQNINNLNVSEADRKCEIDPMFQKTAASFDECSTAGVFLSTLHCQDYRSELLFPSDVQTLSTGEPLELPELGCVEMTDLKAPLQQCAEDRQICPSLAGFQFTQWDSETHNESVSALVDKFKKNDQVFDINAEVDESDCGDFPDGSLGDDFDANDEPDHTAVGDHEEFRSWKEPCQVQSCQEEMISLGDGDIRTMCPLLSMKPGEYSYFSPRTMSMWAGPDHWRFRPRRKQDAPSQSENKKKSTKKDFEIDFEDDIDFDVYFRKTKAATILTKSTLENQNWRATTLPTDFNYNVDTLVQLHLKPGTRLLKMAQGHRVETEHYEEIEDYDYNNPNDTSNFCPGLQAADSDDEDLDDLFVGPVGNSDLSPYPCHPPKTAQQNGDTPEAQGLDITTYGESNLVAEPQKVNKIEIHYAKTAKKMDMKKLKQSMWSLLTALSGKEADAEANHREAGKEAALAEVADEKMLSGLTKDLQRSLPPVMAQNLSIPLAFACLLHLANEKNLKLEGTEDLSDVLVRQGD
UniProt O95139, whole entry, looked up: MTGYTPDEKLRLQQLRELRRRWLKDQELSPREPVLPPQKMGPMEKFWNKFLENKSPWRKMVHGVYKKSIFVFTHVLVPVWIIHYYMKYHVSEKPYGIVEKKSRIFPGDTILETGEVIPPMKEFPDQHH
UniProt P28331, whole entry, looked up: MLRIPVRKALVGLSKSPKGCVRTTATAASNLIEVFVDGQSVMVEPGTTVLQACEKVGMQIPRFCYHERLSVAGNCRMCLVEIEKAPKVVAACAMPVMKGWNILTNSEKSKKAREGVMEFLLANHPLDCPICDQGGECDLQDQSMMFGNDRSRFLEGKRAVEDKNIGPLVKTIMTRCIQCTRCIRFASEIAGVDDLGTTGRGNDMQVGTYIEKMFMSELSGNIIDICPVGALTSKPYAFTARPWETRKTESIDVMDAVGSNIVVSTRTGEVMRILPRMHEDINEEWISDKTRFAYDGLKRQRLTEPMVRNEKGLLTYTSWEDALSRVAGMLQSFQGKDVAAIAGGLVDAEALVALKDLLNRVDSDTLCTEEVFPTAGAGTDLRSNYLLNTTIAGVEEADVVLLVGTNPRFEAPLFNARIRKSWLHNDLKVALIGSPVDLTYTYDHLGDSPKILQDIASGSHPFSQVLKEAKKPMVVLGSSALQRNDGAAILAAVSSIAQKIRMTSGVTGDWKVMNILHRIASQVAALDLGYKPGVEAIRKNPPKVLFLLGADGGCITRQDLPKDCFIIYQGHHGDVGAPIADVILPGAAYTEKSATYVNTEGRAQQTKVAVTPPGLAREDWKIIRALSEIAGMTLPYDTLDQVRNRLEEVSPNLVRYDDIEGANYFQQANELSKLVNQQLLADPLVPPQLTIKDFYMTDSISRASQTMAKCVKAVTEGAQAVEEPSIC
UniProt P54802: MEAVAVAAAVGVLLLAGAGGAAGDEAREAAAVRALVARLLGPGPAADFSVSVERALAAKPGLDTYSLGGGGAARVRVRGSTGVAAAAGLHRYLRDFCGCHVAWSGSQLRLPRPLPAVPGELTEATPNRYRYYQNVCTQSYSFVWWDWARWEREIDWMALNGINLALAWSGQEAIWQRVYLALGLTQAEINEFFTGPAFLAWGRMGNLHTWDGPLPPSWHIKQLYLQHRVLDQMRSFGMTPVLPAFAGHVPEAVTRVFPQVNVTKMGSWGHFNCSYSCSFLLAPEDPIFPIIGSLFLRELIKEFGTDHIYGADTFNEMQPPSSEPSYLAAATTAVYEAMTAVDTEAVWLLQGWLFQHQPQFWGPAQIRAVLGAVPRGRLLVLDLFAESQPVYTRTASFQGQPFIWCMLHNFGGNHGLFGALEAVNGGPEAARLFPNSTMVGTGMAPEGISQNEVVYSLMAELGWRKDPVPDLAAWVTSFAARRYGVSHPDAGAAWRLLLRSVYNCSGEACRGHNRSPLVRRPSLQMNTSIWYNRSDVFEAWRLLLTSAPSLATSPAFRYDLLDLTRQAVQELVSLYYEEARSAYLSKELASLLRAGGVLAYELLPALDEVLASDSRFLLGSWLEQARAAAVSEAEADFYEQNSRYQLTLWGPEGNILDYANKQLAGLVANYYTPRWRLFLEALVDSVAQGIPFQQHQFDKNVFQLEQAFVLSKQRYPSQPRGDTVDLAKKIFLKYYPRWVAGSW
UniProt P43490: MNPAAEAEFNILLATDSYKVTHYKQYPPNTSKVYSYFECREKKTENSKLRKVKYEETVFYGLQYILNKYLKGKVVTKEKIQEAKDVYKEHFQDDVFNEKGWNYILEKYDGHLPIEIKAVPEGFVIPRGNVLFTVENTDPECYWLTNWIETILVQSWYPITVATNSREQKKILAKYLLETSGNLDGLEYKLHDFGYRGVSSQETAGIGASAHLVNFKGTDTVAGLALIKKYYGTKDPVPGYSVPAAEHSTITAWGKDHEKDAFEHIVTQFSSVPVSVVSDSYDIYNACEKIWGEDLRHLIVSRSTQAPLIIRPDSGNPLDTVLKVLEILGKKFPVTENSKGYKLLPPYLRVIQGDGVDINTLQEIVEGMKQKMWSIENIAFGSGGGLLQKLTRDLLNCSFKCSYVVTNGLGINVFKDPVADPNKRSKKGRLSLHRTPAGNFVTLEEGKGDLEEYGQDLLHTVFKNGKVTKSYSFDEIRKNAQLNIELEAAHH
UniProt Q8IW45: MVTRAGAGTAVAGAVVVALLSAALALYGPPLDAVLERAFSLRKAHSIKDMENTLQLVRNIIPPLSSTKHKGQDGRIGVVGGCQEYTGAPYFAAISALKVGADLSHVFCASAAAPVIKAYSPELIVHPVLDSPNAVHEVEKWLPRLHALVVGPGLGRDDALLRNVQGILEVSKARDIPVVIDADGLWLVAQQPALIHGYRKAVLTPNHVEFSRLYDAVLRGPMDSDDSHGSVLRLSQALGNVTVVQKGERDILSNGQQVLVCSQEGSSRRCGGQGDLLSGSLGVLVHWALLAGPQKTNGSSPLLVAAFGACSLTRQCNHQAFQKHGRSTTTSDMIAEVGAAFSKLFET
UniProt P42695: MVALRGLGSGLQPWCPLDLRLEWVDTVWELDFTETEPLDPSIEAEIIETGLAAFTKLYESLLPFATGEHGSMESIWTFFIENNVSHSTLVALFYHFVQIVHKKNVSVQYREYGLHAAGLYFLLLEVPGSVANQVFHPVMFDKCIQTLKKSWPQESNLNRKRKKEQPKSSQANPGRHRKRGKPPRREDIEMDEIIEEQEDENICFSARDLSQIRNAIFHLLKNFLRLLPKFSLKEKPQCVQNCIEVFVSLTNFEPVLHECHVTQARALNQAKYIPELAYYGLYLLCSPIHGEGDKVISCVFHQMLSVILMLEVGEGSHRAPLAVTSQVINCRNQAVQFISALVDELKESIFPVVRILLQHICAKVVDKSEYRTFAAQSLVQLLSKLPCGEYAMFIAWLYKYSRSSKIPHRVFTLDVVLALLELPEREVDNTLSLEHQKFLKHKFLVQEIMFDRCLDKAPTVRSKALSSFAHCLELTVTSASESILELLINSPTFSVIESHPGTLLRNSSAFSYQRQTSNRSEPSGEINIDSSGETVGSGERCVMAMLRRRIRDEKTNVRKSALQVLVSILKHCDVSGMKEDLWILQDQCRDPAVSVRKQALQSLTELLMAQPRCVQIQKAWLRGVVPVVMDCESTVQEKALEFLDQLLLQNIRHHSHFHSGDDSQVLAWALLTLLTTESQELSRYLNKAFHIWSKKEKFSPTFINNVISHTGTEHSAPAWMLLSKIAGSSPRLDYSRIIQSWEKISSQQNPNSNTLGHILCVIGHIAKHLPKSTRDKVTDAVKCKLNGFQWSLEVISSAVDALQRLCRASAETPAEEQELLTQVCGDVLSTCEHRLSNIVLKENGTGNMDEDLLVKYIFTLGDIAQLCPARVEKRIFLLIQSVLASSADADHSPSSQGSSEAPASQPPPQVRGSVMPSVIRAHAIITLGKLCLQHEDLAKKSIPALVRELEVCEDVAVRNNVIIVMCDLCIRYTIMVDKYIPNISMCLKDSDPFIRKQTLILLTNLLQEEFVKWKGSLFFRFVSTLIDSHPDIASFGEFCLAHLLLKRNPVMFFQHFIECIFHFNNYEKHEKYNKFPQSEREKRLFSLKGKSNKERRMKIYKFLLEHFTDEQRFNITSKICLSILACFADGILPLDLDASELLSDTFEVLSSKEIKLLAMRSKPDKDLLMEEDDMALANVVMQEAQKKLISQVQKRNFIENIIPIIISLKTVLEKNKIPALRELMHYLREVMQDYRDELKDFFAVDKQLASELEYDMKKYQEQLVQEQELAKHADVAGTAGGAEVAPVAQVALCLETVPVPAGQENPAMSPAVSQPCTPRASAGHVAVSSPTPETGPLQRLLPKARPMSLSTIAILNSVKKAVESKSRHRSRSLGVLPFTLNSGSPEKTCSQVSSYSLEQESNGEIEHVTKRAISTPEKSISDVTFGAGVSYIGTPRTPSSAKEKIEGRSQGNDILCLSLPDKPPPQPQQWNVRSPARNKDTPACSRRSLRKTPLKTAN

What was measured:
Test in all cases: log2 fold change, soluble protein after heating vs DMSO (PISA); higher = thermal stabilisation; K562 cells, 10 uM, 30 min; active = over 0.2 and 3.5 SD of the protein, either way, in both replicates (recomputed)
bafetinib = compound: Cc1ccc(NC(=O)c2ccc(CN3CC[C@H](N(C)C)C3)c(C(F)(F)F)c2)cc1Nc1nccc(-c2cncnc2)n1 [bafetinib]
Procedure, shortened: (§1)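 K562 cells (2×10^6 cells/mL) were treated with 10 μM compound for 30 min, and aliquots were heated for 3 min over 48°C-58°C. Pooled aliquots were extracted in PBS with 0.5% NP-40 at 4°C, and the supernatant after 21,000xg for 90 min was measured by TMTpro 16plex LC-MS/MS with channel sums equalised. Reported thermal stability, relative to control samples and from duplicates, is a log2 fold change.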

[1] = compound: Cc1cccc(CC(=O)N2CCc3c2ccc(-c2cn(C)c4ncnc(N)c24)c3F)n1
Procedure, shortened: as §1

nilotinib = compound: Cc1cn(-c2cc(NC(=O)c3ccc(C)c(Nc4nccc(-c5cccnc5)n4)c3)cc(C(F)(F)F)c2)cn1 [nilotinib]
Procedure, shortened: as §1

[2] = compound: Cc1nc(Nc2n[nH]c3c2CN(C(=O)N[C@H](CN(C)C)c2ccccc2)C3(C)C)c2sccc2n1
Procedure, shortened: as §1

dasatinib = compound: Cc1nc(Nc2ncc(C(=O)Nc3c(C)cccc3Cl)s2)cc(N2CCN(CCO)CC2)n1 [dasatinib]
Procedure, shortened: as §1

[3] = compound: Cc1ncc(-c2ccnc(Nc3ccc(S(C)(=O)=O)cc3)n2)n1C(C)C
Procedure, shortened: as §1

[4] = compound: Cn1cc(-c2ccc3c(c2)CCN3C(=O)Cc2cccc(C(F)(F)F)c2)c2c(N)ncnc21
Procedure, shortened: as §1

[5] = compound: Cn1cc(-c2ccc3nnc(C(F)(F)c4ccc5ncccc5c4)n3n2)cn1
Procedure, shortened: as §1

tipifarnib = compound: Cn1cncc1[C@@](N)(c1ccc(Cl)cc1)c1ccc2c(c1)c(-c1cccc(Cl)c1)cc(=O)n2C [tipifarnib]
Procedure, shortened: as §1

mubritinib = compound: FC(F)(F)c1ccc(/C=C/c2nc(COc3ccc(CCCCn4ccnn4)cc3)co2)cc1 [mubritinib]
Procedure, shortened: as §1

[6] = compound: NC(=O)Nc1cc(-c2cccc(F)c2)sc1C(=O)N[C@H]1CCCNC1
Procedure, shortened: as §1

[7] = compound: NC(=O)c1cnc(N[C@@H]2CCCC[C@@H]2N)nc1Nc1cccc(-n2nccn2)c1
Procedure, shortened: as §1

[8] = compound: NC1(c2ccc(-c3nc4ccn5c(=O)[nH]nc5c4cc3-c3ccccc3)cc2)CCC1
Procedure, shortened: as §1

[9] = compound: NCC(=O)Nc1ccc(-n2nc(C(F)(F)F)cc2-c2ccc3c(ccc4ccccc43)c2)cc1
Procedure, shortened: as §1

entinostat = compound: Nc1ccccc1NC(=O)c1ccc(CNC(=O)OCc2cccnc2)cc1 [entinostat]
Procedure, shortened: as §1

vorinostat = compound: O=C(CCCCCCC(=O)Nc1ccccc1)NO [vorinostat]
Procedure, shortened: as §1

citarinostat = compound: O=C(CCCCCCNC(=O)c1cnc(N(c2ccccc2)c2ccccc2Cl)nc1)NO [citarinostat]
Procedure, shortened: as §1

silmitasertib = compound: O=C(O)c1ccc2c(c1)nc(Nc1cccc(Cl)c1)c1ccncc12 [silmitasertib]
Procedure, shortened: as §1

[10] = compound: O=C1NC(=O)C(c2cnc3ccccn23)=C1c1cn2c3c(cc(F)cc13)CN(C(=O)N1CCCCC1)CC2
Procedure, shortened: as §1

[11] = compound: c1cc(OCCN2CCCCC2)cc(-c2n[nH]c3ccc(-c4nnc[nH]4)cc23)c1
Procedure, shortened: as §1

Measured: log2 fold change

NA, A0A096LPI6
inactive: bafetinib -0.076 | [1] -0.043 | nilotinib 0 | [2] -0.007 | dasatinib -0.005 | [3] -0.04 | [4] -0.003 | [5] -0.028 | tipifarnib -0.038 | mubritinib 0.024 | [6] 0.03 | [7] 0.04 | [8] -0.012 | [9] 0.016 | entinostat -0.006 | vorinostat -0.02 | citarinostat 0.022 | silmitasertib 0.024 | [10] -0.043 | [11] -0.015

NDUFS4 (UniProt O43181)
inactive: bafetinib -0.083 | [1] 0.017 | nilotinib 0.039 | [2] 0.015 | dasatinib 0.087 | [3] -0.047 | [4] 0.025 | [5] -0.049 | tipifarnib 0.202 | mubritinib 0.058 | [6] -0.015 | [7] 0.026 | [8] 0.005 | [9] 0.053 | entinostat -0.095 | vorinostat -0.058 | citarinostat -0.069 | silmitasertib 0.03 | [10] 0.007 | [11] -0.039

NDUFB4 (UniProt O95168)
inactive: bafetinib -0.137 | [1] 0.014 | nilotinib 0.034 | [2] -0.017 | dasatinib -0.029 | [3] 0.005 | [4] 0.092 | [5] 0.031 | tipifarnib 0.064 | mubritinib 0.044 | [6] 0.003 | [7] 0.07 | [8] 0.059 | [9] 0 | entinostat 0.048 | vorinostat -0.022 | citarinostat -0.015 | silmitasertib -0.122 | [10] -0.068 | [11] -0.022

NCOA7 (UniProt Q8NI08)
inactive: bafetinib -0.017 | [1] 0.154 | nilotinib -0.044 | [2] -0.046 | dasatinib -0.144 | [3] -0.039 | [4] 0.085 | [5] 0.004 | tipifarnib -0.125 | mubritinib 0.054 | [6] -0.061 | [7] -0.036 | [8] -0.068 | [9] -0.033 | entinostat -0.067 | vorinostat 0.026 | citarinostat -0.001 | silmitasertib 0.022 | [10] -0.093 | [11] -0.005

NBN (UniProt O60934)
inactive: bafetinib -0.021 | [1] 0.031 | nilotinib 0.018 | [2] -0.198 | dasatinib -0.171 | [3] 0.048 | [4] 0.031 | [5] 0.064 | tipifarnib -0.016 | mubritinib 0.131 | [6] -0.021 | [7] -0.037 | [8] -0.078 | [9] -0.067 | entinostat 0.127 | vorinostat 0.091 | citarinostat 0.009 | silmitasertib -0.055 | [10] -0.104 | [11] 0

Fetched one by one from above (two):
NDUFS4 (UniProt O43181)
inactive: bafetinib -0.083 | [1] 0.017 | nilotinib 0.039 | [2] 0.015 | dasatinib 0.087 | [3] -0.047 | [4] 0.025 | [5] -0.049 | tipifarnib 0.202 | mubritinib 0.058 | [6] -0.015 | [7] 0.026 | [8] 0.005 | [9] 0.053 | entinostat -0.095 | vorinostat -0.058 | citarinostat -0.069 | silmitasertib 0.03 | [10] 0.007 | [11] -0.039

NA, A0A096LPI6
inactive: bafetinib -0.076 | [1] -0.043 | nilotinib 0 | [2] -0.007 | dasatinib -0.005 | [3] -0.04 | [4] -0.003 | [5] -0.028 | tipifarnib -0.038 | mubritinib 0.024 | [6] 0.03 | [7] 0.04 | [8] -0.012 | [9] 0.016 | entinostat -0.006 | vorinostat -0.02 | citarinostat 0.022 | silmitasertib 0.024 | [10] -0.043 | [11] -0.015

Next part:

NECTIN2 (UniProt Q92692)
inactive: bafetinib 0.03 | [1] -0.023 | nilotinib -0.023 | [2] 0.022 | dasatinib -0.017 | [3] 0.055 | [4] 0.096 | [5] 0.009 | tipifarnib 0.008 | mubritinib 0.023 | [6] 0 | [7] 0.107 | [8] 0.056 | [9] 0.099 | entinostat -0.029 | vorinostat -0.041 | citarinostat 0.034 | silmitasertib -0.081 | [10] -0.03 | [11] -0.006

NDUFS6 (UniProt O75380)
inactive: bafetinib 0.015 | [1] -0.023 | nilotinib 0.063 | [2] 0.045 | dasatinib 0.112 | [3] -0.071 | [4] -0.037 | [5] -0.015 | tipifarnib 0.101 | mubritinib 0.097 | [6] 0.019 | [7] 0.044 | [8] 0.013 | [9] 0 | entinostat -0.092 | vorinostat -0.076 | citarinostat -0.069 | silmitasertib -0.009 | [10] 0.088 | [11] -0.025

NDUFAF2 (UniProt Q8N183)
inactive: bafetinib -0.056 | [1] -0.015 | nilotinib -0.004 | [2] 0.029 | dasatinib -0.003 | [3] -0.034 | [4] 0.095 | [5] 0.004 | tipifarnib -0.028 | mubritinib 0.001 | [6] -0.039 | [7] -0.021 | [8] -0.01 | [9] -0.029 | entinostat -0.008 | vorinostat 0.032 | citarinostat 0.042 | silmitasertib -0.018 | [10] -0.045 | [11] -0.025

NDUFS5 (UniProt O43920)
inactive: bafetinib -0.109 | [1] -0.086 | nilotinib -0.016 | [2] 0.032 | dasatinib 0.004 | [3] -0.003 | [4] 0.001 | [5] -0.016 | tipifarnib 0.024 | mubritinib 0.023 | [6] -0.032 | [7] -0.044 | [8] -0.027 | [9] -0.002 | entinostat -0.026 | vorinostat 0.062 | citarinostat 0.046 | silmitasertib 0.017 | [10] 0.054 | [11] -0.012

NCAPH (UniProt Q15003)
inactive: bafetinib 0.015 | [1] 0.022 | nilotinib -0.055 | [2] -0.049 | dasatinib -0.121 | [3] 0.041 | [4] -0.057 | [5] 0.019 | tipifarnib -0.102 | mubritinib 0.019 | [6] -0.086 | [7] -0.036 | [8] -0.092 | [9] -0.043 | entinostat 0.038 | vorinostat 0.029 | citarinostat 0.029 | silmitasertib 0.098 | [10] 0 | [11] -0.009

NDUFB6 (UniProt O95139)
inactive: bafetinib -0.132 | [1] -0.018 | nilotinib 0.027 | [2] -0.029 | dasatinib 0.088 | [3] -0.004 | [4] -0.059 | [5] -0.029 | tipifarnib 0.162 | mubritinib 0 | [6] -0.037 | [7] -0.106 | [8] -0.026 | [9] -0.11 | entinostat -0.032 | vorinostat -0.03 | citarinostat 0.036 | silmitasertib 0.053 | [10] -0.069 | [11] -0.104

NDUFS1 isoform 2 (UniProt P28331)
inactive: bafetinib 0.026 | [1] 0.075 | nilotinib -0.053 | [2] 0.001 | dasatinib -0.112 | [3] -0.016 | [4] 0.048 | [5] 0.036 | tipifarnib -0.034 | mubritinib 0.131 | [6] -0.013 | [7] 0.003 | [8] -0.154 | [9] -0.043 | entinostat 0.007 | vorinostat 0.025 | citarinostat 0.018 | silmitasertib -0.066 | [10] -0.061 | [11] -0.051

NAGLU (UniProt P54802)
inactive: bafetinib -0.026 | [1] -0.027 | nilotinib -0.015 | [2] 0.028 | dasatinib -0.023 | [3] 0.023 | [4] 0.165 | [5] -0.004 | tipifarnib 0.038 | mubritinib 0.024 | [6] 0.095 | [7] -0.016 | [8] -0.144 | [9] -0.016 | entinostat 0.017 | vorinostat -0.023 | citarinostat -0.062 | silmitasertib 0.151 | [10] 0.094 | [11] 0.024

NAMPT (UniProt P43490)
inactive: bafetinib -0.026 | [1] -0.039 | nilotinib -0.01 | [2] 0.009 | dasatinib 0.023 | [3] 0 | [4] 0 | [5] 0.023 | tipifarnib 0.047 | mubritinib 0.033 | [6] 0.011 | [7] -0.013 | [8] 0.036 | [9] 0.007 | entinostat -0.012 | vorinostat -0.017 | citarinostat 0.014 | silmitasertib -0.019 | [10] -0.034 | [11] -0.014

NAXD (UniProt Q8IW45)
inactive: bafetinib -0.034 | [1] 0.036 | nilotinib -0.024 | [2] -0.02 | dasatinib 0 | [3] -0.051 | [4] 0.043 | [5] -0.04 | tipifarnib 0.027 | mubritinib 0.05 | [6] 0.047 | [7] 0.042 | [8] 0.021 | [9] 0.014 | entinostat -0.065 | vorinostat -0.018 | citarinostat -0.009 | silmitasertib -0.043 | [10] -0.001 | [11] -0.1

NCAPD3 (UniProt P42695)
inactive: bafetinib -0.104 | [1] -0.035 | nilotinib -0.069 | [2] 0.027 | dasatinib -0.008 | [3] -0.01 | [4] -0.017 | [5] 0.073 | tipifarnib 0.004 | mubritinib 0.102 | [6] -0.035 | [7] 0.039 | [8] -0.06 | [9] 0.045 | entinostat 0.034 | vorinostat 0.048 | citarinostat 0.09 | silmitasertib 0.14 | [10] 0.071 | [11] -0.073
